From publication PMC7948738

Sequences of proteins named here, by UniProt entry; tags and fusion partners are left off. Residues count along the entry.
UniProt P26450: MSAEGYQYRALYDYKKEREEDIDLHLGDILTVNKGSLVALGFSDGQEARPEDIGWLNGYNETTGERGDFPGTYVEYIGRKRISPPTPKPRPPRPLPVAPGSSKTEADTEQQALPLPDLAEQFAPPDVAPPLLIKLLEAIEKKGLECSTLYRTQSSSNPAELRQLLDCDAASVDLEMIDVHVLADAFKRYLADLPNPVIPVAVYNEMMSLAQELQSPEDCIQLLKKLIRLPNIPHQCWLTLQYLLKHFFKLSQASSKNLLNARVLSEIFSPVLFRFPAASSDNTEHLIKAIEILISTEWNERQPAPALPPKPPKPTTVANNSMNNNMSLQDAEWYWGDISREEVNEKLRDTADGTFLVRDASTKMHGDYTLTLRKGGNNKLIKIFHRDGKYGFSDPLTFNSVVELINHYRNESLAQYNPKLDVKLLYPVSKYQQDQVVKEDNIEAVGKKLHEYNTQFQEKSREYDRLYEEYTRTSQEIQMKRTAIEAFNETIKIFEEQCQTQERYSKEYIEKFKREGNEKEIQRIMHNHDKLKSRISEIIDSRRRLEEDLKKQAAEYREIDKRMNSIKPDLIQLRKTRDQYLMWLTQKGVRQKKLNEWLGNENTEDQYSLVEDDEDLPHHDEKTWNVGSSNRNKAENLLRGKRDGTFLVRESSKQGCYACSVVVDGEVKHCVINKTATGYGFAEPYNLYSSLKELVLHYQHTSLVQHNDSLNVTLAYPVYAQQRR
UniProt P62259: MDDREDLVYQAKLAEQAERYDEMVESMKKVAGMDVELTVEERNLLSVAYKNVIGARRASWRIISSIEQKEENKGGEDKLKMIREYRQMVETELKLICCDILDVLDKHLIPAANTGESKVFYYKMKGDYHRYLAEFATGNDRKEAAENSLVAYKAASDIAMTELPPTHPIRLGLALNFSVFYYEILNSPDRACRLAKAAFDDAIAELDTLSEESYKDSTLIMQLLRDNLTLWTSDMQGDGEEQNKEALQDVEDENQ
UniProt O08908: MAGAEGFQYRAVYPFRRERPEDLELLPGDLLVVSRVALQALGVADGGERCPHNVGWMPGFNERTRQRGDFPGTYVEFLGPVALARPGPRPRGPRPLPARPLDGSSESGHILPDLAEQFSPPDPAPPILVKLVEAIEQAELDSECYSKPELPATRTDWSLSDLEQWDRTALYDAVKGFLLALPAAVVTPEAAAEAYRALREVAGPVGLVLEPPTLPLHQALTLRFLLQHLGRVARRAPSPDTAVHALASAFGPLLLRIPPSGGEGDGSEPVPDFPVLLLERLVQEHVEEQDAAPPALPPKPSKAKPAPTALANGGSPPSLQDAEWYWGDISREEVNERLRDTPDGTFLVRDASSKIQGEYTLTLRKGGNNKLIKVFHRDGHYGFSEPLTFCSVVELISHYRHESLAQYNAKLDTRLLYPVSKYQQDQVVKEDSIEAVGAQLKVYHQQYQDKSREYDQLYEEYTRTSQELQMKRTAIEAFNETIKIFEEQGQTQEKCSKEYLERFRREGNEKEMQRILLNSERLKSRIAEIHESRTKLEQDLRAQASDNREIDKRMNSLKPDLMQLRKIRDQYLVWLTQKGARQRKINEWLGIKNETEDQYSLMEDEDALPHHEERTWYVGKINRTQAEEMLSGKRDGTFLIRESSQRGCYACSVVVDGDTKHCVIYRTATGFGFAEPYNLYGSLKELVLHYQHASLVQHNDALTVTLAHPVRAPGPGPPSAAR
UniProt P26618, residues 25-1089: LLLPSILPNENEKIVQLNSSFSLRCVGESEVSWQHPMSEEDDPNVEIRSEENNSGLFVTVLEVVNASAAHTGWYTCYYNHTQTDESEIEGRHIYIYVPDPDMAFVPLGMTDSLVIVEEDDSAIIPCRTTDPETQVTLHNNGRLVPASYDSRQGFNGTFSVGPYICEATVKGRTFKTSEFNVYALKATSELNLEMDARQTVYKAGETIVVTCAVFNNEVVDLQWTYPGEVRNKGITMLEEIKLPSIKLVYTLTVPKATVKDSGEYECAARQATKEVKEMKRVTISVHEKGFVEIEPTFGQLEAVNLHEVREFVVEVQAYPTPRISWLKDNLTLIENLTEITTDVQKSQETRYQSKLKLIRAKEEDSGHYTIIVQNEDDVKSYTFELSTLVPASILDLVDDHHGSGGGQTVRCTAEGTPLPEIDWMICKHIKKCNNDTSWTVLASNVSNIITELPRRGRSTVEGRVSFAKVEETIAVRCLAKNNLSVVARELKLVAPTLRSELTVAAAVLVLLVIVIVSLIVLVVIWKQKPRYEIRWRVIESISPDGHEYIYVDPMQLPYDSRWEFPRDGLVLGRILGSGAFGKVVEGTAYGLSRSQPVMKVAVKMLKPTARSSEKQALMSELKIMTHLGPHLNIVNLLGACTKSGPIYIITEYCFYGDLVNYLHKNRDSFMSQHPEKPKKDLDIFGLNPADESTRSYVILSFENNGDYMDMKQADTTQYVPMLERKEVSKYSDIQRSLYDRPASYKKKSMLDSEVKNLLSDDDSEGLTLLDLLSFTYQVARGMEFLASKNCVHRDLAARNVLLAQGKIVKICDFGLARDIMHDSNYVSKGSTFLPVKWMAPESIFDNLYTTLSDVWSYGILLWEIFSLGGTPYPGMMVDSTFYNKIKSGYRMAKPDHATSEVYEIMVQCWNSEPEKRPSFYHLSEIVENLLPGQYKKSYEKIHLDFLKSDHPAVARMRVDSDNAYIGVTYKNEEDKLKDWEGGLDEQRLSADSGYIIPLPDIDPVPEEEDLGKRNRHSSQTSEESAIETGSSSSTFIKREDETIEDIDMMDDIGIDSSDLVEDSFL
UniProt Q8R550: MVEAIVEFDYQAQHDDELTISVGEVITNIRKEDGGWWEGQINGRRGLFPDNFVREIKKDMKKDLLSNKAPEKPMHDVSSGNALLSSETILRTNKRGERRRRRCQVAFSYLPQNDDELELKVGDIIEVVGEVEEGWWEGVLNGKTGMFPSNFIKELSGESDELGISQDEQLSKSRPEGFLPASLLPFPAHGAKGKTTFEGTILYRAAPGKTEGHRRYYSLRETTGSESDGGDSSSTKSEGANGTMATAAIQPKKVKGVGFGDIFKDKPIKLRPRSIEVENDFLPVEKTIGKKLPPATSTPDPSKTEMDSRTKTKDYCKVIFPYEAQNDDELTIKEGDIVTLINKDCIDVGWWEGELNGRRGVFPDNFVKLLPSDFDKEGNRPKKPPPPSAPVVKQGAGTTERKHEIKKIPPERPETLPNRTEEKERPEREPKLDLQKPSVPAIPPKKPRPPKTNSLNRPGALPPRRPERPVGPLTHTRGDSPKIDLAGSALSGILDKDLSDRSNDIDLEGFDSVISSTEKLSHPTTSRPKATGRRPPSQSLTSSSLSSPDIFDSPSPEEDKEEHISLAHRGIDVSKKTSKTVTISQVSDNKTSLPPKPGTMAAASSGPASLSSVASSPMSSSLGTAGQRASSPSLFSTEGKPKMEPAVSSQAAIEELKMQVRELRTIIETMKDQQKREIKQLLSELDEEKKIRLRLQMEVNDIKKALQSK
UniProt P63101: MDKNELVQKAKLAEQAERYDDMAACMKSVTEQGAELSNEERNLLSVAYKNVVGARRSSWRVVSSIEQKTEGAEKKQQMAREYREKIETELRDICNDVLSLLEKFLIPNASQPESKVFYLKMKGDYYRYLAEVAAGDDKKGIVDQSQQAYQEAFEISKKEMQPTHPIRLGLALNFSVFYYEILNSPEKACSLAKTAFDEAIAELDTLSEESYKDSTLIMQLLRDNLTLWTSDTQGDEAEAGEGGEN
UniProt P20029, residues 20-655: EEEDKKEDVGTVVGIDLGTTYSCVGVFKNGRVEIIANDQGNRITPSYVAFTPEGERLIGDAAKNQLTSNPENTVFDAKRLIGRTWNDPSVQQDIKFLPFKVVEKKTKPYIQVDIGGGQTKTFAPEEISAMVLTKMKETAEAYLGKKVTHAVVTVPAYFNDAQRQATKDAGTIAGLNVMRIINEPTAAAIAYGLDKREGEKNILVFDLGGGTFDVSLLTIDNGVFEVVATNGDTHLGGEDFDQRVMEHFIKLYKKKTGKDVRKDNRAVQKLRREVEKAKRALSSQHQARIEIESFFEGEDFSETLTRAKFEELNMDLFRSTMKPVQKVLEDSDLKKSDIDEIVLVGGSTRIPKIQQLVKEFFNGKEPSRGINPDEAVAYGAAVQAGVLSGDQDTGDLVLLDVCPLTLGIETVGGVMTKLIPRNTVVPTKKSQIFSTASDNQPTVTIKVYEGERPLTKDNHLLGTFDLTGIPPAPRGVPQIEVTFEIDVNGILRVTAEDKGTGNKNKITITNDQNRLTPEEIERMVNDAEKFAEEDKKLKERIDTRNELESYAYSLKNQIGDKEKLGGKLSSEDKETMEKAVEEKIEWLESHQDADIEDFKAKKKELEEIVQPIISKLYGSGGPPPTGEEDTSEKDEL

Each molecule was assayed against Phosphatidylinositol 3-kinase (PI3K) regulatory subunit alpha (mouse (endogenous in Ht22)) (UniProt P26450) (assay: affinity purification with mass spectrometry; endogenous PI3K p85 immunoprecipitated with Ab2 (CST 4257S) and Protein A Sepharose from lysates of Ht22 cells treated 1 h with ACM or CFM and fixed with 0.5% formalin; 0.2% NP-40, 150 mM Tris, 150 mM NaCl; wash with 500 mM NaCl; negative control with blocking peptide; iTRAQ 8plex, MS/MS).

Row | Molecule | binding
1 | 14-3-3 protein epsilon (from UniProt P62259 1-255) | binds
2 | Phosphatidylinositol 3-kinase regulatory subunit beta (from UniProt O08908 1-722) | binds
3 | Isoform 1 of zinc finger CCCH domain–containing protein 14 (protein, UniProt Q8BJ05 1-735) MEIGTEISRKIRSAIKGKLQELGAYVDEELPDYIMVMVANKKSQDQMTEDLSLFLGNNTIRFTVWLHGVLDKLRSVTTEPSSLKSPDASIFDSHVPSNKSSFSRGDERRHEAAVPPLAVSSSRPEKRDSRVSTSSQEQKSTNVRHSYDDGASTRLMSTVKPLREPAPSEDVIDIKPEPDDLIDEDLNFVQENPLSQKKPTVTLTYGSSRPSIEIYRPPASRNADTGTHLNRLQLHPQQSSAHAAKQLDVQSSQVSEAGRLCEPPVLSSVEDTYSPFFRNNLDKMSIEDENFRKRKLPVVSSVVKVKRFSHDGEEEEEDEDYGTRIGSLSSSVSVPAKPERRPSLPPSKQANKNLILKAISEAQESVTKTTNYSAVPQKQTLPVAPRTRTSQEELLAEMVQGQNRAPRISPPVKEEEAKGDNTGKSQGTQQRQLLSRLQIDPVMVETMEMSQDYYDMESMVHADTRSFILKKPKLSEEIVVTPNQDSGMKTADALRVLSGHLMQTRDLVQPDKPASPKFIVTLDGVPSPPGYMSDQEEEMCFEGMKPVNQTSASNKGLRGLLHPQQLHLLSRQLEDPDGSFSNAEMTDLSVAQKPEKLLERCKYWPACKNGDECVYHHPISPCKAFPNCKFAEKCLFVHPNCKYDTKCTKADCPFTHMSRRASILTPKPVSSPAPSSNGQLCRYFPACKKMECPFYHPKHCRFNTQCTRPDCTFYHPTITVPPRHALKWIRPQSSE | binds
4 | Isoform Cas-A of breast cancer anti-estrogen resistance protein 1 (protein, UniProt Q61140-2 1-874) MKYLNVLAKALYDNVAESPDELSFRKGDIMTVLERDTQGLDGWWLCSLHGRQGIVPGNRLKILVGMYDKKPVGPGPGPPATPPQPQPSLPQGVHAPVPPASQYSPMLPTAYQPQSDNVYLVPTPSKTQQGLYQAPGPNPQFQSPPAKQTSTFSKQTPHHSFPSPATDLYQVPPGPGSPAQDIYQVPPSAGIGHDIYQVPPSLDTRGWEGTKPPAKVVVPTRVGQGYVYEAAQTEQDEYDTPRHLLAPGPQDIYDVPPVRGLLPNQYGQEVYDTPPMAVKGPNGRDPLLDVYDVPPSVEKGLLSSSHHSVYDVPPSVSKDVPDGPLLREETYDVPPAFAKPKPFDPTRHPLILAAPPPDSPAAEDVYDVPPPAPDLYDVPPGLRRPGPGTLYDVPRERVLPPEVADGSVVDDGVYAVPPPAEREAPTDGKRLSASSTGSTRSSQSASSLEVVVPGREPLELEVAVESLARLQQGVSTTVAHLLDLVGSASGPGGWRGTSEPQEPPAQDLKAAVAAVHGAVHELLEFARGAVSNATHTSDRTLHAKLSRQLQKMEDVYQTLVVHGQVLDSGRGSPGFTPEDLDRLVACSRAVPEDAKQLASFLHGNASLLFRRTKAPGPGPEGSSSLHPNPTDKASSIQSRPLPSPPKFTSQDSPDGQYENSEGGWMEDYDYVHLQGKEEFEKTQKELLERGNIMRQGKGQLELQQLKQFERLEQEVSRPIDHDLANWTPAQPLVPGRTGGLGPSDRQLLLFYLEQCEANLTTLTDAVDAFFTAVATNQPPKIFVAHSKFVILSAHKLVFIGDTLSRQAKAADVRSQVTHYSNLLCDLLRGIVATTKAAALQYPSPSAAQDMVDRVKELGHSTQQFRRVLGQLAAA | binds

More lines, now with the values ahead:

Row | binding | Molecule
5 | binds | Isoform 1 of alpha-type platelet-derived growth factor receptor (from UniProt P26618 25-1089)
6 | binds | Isoform 1 of SH3 domain–containing kinase-binding protein 1 (from UniProt Q8R550 1-709)
7 | binds | 14-3-3 protein zeta/delta (from UniProt P63101 1-245)
8 | binds | 78-kDa glucose-regulated protein (from UniProt P20029 20-655)
9 | binds | Isoform 1 of MKL/myocardin-like protein 1 (protein, UniProt Q8K4J6 1-964) MTLLEPEMLMMAVQSVLQLKLQQRRTREELVSQGIMPPLKSPAAFHEQRRSLERARTEDYLKRKIRSRPERAELVRMHILEETSAEPSLQAKQLKLKRARLADDLNEKIAQRPGPMELVEKNILPVESSLKEAIIVGQVNYPKVADSSSFDEDSSDALSPEQPASHESQGSVPSPLESRVSDPLPSATSISPTQVLSQLPMAPDPGETLFLAEQPPLPPAPLLPPSLANGSIVPTAKPAPTLIKQSQPKSASEKSQRSKKAKELKPKVKKLKYHQYIPPDQKQDKGAPAMDSSYAKILQQQQLFLQLQILNQQQQQQQQQHYNYQAILPAPPKPSAETPGSSAPTPSRSLSTSSSPSSGTPGPSGLARQSSTALAAKPGALPANLDDMKVAELKQELKLRSLPVSGTKTELIERLRAYQDQVSPAPGAPKAPATTSVLSKAGEVVVAFPAALLSTGSALVTAGLAPAEMVVATVTSNGMVKFGSTGSTPPVSPTPSERSLLSTGDENSTPGDAFGEMVTSPLTQLTLQASPLQIVKEEGARAASCCLSPGARAELEGLDKDQMLQEKDKQIEELTRMLQQKQQLVELLRLQLEQQKRAQQPAPASSPVKRESGFSSCQLSCQPQGSAHAFGSGLVVPTTNHGDTQAPAPESPPVVVKQEAGPPEPDLAPSSQLLLGSQGTSFLKRVSPPTLVTDSTGTHLILTVTNKSADGPGLPAGSPQQPLSQPGSPAPGPPAQMDLEHPPQPPFATPTSLLKKEPPGYEETVTQQPKQQENGSSSQHMDDLFDILIQSGEISADFKEPPSLPGKEKSPPAAAAYGPPLTPQPSPLSELPQAAPPPGSPTLPGRLEDFLESSTGLPLLTSGHEGPEPLSLIDDLHSQMLSSSAILDHPPSPMDTSELHFAPEPSSGMGLDLAVGHLDSMDWLELSSGGPVLSLAPLSTAAPSLFSMDFLDGHDLQLHWDSCL
10 | binds | GRB2-associated binding protein 1 (protein, UniProt Q9QYY0 1-695) MSGGEVVCSGWLRKSPPEKKLKRYAWKRRWFVLRSGRLTGDPDVLEYYKNDHAKKPIRIIDLNLCQQVDAGLTFNKKEFENSYIFDINTIDRIFYLVADSEEDMNKWVRCICDICGFNPTEEDPVKPLTGSSQAPVDSPFAISTAPASSQMEASSVALPPPYQVISLPPHPDTLGLQDDPQDYLLLINCQSKKPEPNRTLFDSAKPTFSETDCNDNVPSHQTPASSQSKHGMNGFFQQQMMYDCPPSRLTSVSGESSLYNLPRSYSHDVLPKESPSSTEADGELYTFNTPSGTAGVETQMRHVSISYDIPPTPGNTYQIPRTFPESTLGQSSKLDTIPDIPPPRPPKPHPTHDRSPVETCGVPRTASDTDSSYCIPPPAGMTPSRSNTISTVDLNKLRKDASSQDCYDIPRTFPSDRSSSLEGFHSQYKIKSVLTAGGVSGEELDENYVPMNPNSPPRQHSGSFTEPIQEPNYVPMTPGTFDFSSFGMQVPPPAHMGFRSSPKTPPRRPVPVADCEPPPVDRNLKPDRKVKPAPLDIKPLSEWEELQAPVRSPITRSFARDSSRFPMSPRPDSVHSTTSSSDSHDSEENYVPMNPNLSGEDPNLFASNSLDGGSSPMNKPKGDKQVEYLDLDLDSGKSTPPRKQKSSGSGSSMADERVDYVVVDQQKTLALKSTREAWTDGRQSTESETPTKNVK

Results are given in words; binding and its absence hold for the method and conditions named. Binding seen in cells or lysates may run through a third protein. A yes stands for co-enrichment or nearness to the bait. Other partners may have been found.
